Data from article PMC8693860.
Results are given in words; binding and its absence hold for the method and conditions named. Binding can be weak; no strength is given. Where a sequence is shown, tags or fusion partners need not be part of it.

Molecular target: T1, SF-tagged Atg8 (S. cerevisiae) (UniProt P38182)
T1 sequence: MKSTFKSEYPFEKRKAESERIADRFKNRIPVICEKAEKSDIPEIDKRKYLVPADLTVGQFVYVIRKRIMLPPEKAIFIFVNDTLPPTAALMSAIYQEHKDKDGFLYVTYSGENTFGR
Test: pull-down; SF-tagged Atg8 on anti-FLAG resin as bait; Atg1 preparations (whole, AIM mutants, truncations) autophosphorylated (ATP/Mg2+) or dephosphorylated with λ-PP, treated with apyrase before addition; 15 min at room temperature, three washes, elution with 3xFLAG peptide, SDS-PAGE; both purified

| binding | Substance |
| --- | --- |
| binds weakly | Atg1 N-terminal kinase domain (truncation of Atg1^ΔAIM/S^>^A) (S. cerevisiae) (domain or fragment) |
| no binding | Atg1 central region (truncation of Atg1^ΔAIM/S^>^A) (S. cerevisiae) (domain or fragment) |
